“And” between values parts separate entries of the source, which are not always exact repeats. Equal entries are not always repeated.
Key:
[1] = tested on: Soy Isoflavone Protein Product; assay: Binding of five different carotenoids to Soy Isoflavone Protein Product (Example 13); details: carbonate/bicarbonate buffer with calcium chloride; 0.4 mg carotenoid in THF per 200 mg protein, overnight
[2] = Binding of lutein to proteins at mg scale (Example 7), supernatant + precipitate; details: 1 mg dry cake lutein per 200 mg protein, three days

CC1=C(/C=C/C(C)=C/C=C/C(C)=C/C=C/C=C(C)/C=C/C=C(C)/C=C/C2=C(C)CCCC2(C)C)C(C)(C)CCC1 [Beta carotene, beta-carotene]
Estimated Carotenoid Content [1]: 0 mg carotenoid/1 g protein

CC1=C[C@H](O)CC(C)(C)[C@H]1/C=C/C(C)=C/C=C/C(C)=C/C=C/C=C(C)/C=C/C=C(C)/C=C/C1=C(C)C[C@@H](O)CC1(C)C [Lutein, lutein]
Estimated Carotenoid Content [1]: 0.617 mg carotenoid/1 g protein

CC(C)=CCC/C(C)=C/C=C/C(C)=C/C=C/C(C)=C/C=C/C=C(C)/C=C/C=C(C)/C=C/C=C(\C)CCC=C(C)C [Lycopene, lycopene]
Estimated Carotenoid Content [1]: 0.0647 mg carotenoid/1 g protein

CC1=C(/C=C/C(C)=C/C=C/C(C)=C/C=C/C=C(C)/C=C/C=C(C)/C=C/C2=C(C)C[C@@H](O)CC2(C)C)C(C)(C)C[C@H](O)C1 [Zeaxanthin, zeaxanthin]
Estimated Carotenoid Content [1]: 1.200 mg carotenoid/1 g protein

Bovine Serum Albumin: bovine albumin
Est. Sup + Est. Ppt., mg Lutein/1 g solids [2]: 0.1992 mg Lutein/1 g solids | Est. Sup + Est. Ppt., mg Lutein/200 mg solids ([2]; listed as BSA): 0.07519 mg Lutein/200 mg solids and 0.03984 mg Lutein/200 mg solids
